From patent publication WO2016075546A2 come the findings set out here.

The target of assay [1] is ZEBOV GP protein (coated, ELISA) (Zaire ebolavirus (ZEBOV)) (UniProt Q05320). The experiment in a line: ELISA titration on coated GP. For orientation: In an ELISA, binding on a coated surface is turned into a signal by an enzyme label.
For assay [2] the target is unchanged. The experiment in a line: ELISA cross-competition on GP-coated plates.
Assay [3] addresses EBOV GP expressed on the surface of MDCK-SIAT cells (Ebola virus (EBOV)) (UniProt Q05320). The assay is described as follows: FACS, serial dilutions on MDCK-SIAT cells expressing EBOV GP. (In general: A flow cytometer gives signals particle by particle.)

Results are given in words; binding and its absence hold for the method and conditions named. Some results given as binding are weak or reduced against the parent protein; the word gives no strength.

B1: EVB165 (antibody, V domains shown)
VH: DVQLVESGGGVVQPGGSLKLACVVSGFRFSDYWMSWVRQAPGKGLEWVANIKQDGSGKYYVDSVKGRFTVSRDNAKNSLYLHMTSLGAEDTAVYFCARAAPTGSYTNILVDNVHFDYWGQGILVAVSS
VL: GIQLTQSPGSLSASVGDSVTITCRPNQNIATYINWYQQTPGKAPKLLIYAASILQSGVPSRFSGAGSGTHFTLIISTLQPEDSATYYCQQSYSTPWTFGQGTKVEIK
Turning to B1, the binding result in assay [1] was “binds”.

B2: EVB114 (parental EVB114 antibody) (antibody, V domains shown)
VH: EVQLVESGGGLIQPGGSLRLSCAASGFALRMYDMHWVRQTIDKRLEWVSAVGPSGDTYYADSVKGRFAVSRENAKNSLSLQMNSLTAGDTAIYYCVRSDRGVAGLFDSWGQGILVTVSS
VL: DIQMTQSPSSLSASVGDRITITCRASQAFDNYVAWYQQRPGKVPKLLISAASALHAGVPSRFSGSGSGTHFTLTISSLQPEDVATYYCQNYNSAPLTFGGGTKVEIK
For the molecule B2, the binding entry in assay [2], in assay [1] and in assay [3] was “binds” each time.
